# From PubChem BioAssay AID602313 (National Center for Advancing Translational Sciences (NCATS), 2012)
# The whole screen tested about 390,000 compounds, of which about 760 (0.19%) were called active. Inconclusive means that the source gave no clear call. Such entries were picked first, then a sample of the others. Calls come from the whole dose curve; as a rule, active = well fitted inhibition curve with a large enough effect; inconclusive = small, poorly fitted or top-dose-only effect; inactive = flat fitted curve, though single readings scatter. Where the call is inconclusive, the potency comes from a doubtful curve fit.
# Test: qHTS for Inhibitors of Vif-A3F Interactions: qHTS; note: nearly all actives have a fitted effect of over 65% in size; for activity, negative = active: % of control where 0% means no effect
# Conditions: HeLa A3F-eYFP + Vif (tagged APOBEC3F with the HIV-1 protein that degrades it), YFP fluorescence increase; series mostly up to 46.1 µM; activity, negative = active: at the top concentration
# Source text: The recent discovery and characterization of host restriction factors, which provide a potent defense to invading retroviruses, has provided new targets for antiviral drug development. APOBEC3G (A3G) and APOBEC3F (A3F) are potent cytidine deaminases that block HIV-1 replication; HIV-1 expresses the Vif protein, which counteracts A3G and A3F by binding to them and inducing their proteasomal degradation. The Vif-A3G and Vif-A3F interactions provide two potential targets for development of small molecules which can interfere with the ability of Vif to degrade A3G or A3F. […] To identify inhibitors that can interfere with Vif mediated degradation of A3G and A3F, we have developed Hela cell lines that stably express A3G or A3F tagged with eYFP at the C-terminal end (A3G-eYFP or A3F-eYFP, respectively) and Vif. In the absence of an inhibitor, Vif induces degradation of A3G-eYFP and A3F-eYFP, and the cells are not fluorescent. In the presence of an inhibitor, it is expected that Vif will be unable to degrade A3G-eYFP and/or A3F-eYFP, resulting in an increase in yellow fluorescence. In this assays Vif A3F was screened against the Molecular Library Small Molecule Repository (MLSMR). NIH Chemical Genomics Center [NCGC] NIH Molecular Libraries Probe Centers Network [MLPCN] MLPCN Grant: MH093245 Assay Submitter (PI): Vinay Pathak, National Cancer Institute
# 5 uL of 700 cells/well of A3F-YFP cells are dispensed into black, clear bottom plates. The plates are incubated overnight at 37 deg C. 23 nL of compounds are added by pintool. The plates are incubated overnight at 37 deg C and then read on the TTP Acumen (Ex 488/ Em 500-530).
# Potency is the fitted concentration of half-maximal effect.
Compound,Potency,"activity, negative = active"
Nc1ccccc1Nc1cc(-c2ccccc2)nn1-c1cccc(Cl)c1,"inconclusive: 35.5 µM [inhibitor, single point]",–
CN(C(=O)CSc1nc2ncccc2o1)c1ccc(F)cc1,–,inactive: 1.81%
CC(=O)N1CCN(c2ccc(NS(=O)(=O)c3ccc(C)cc3)cc2)CC1,"inconclusive: 1.41 µM [inhibitor, full curve, poor fit]",–
CCN1C(=O)[C@H]2[C@@H](c3ccc(-c4ccc(Cl)c(Cl)c4)cc3)N3CCCC[C@@]3(C(=O)OC)[C@H]2C1=O,–,inactive: -7.66%
Cc1cccc(NC2=C(Cl)C(=O)OC2OC(C)C)c1 (configuration not stated),–,inactive: 0.609%
NS(=O)(=O)c1ccccc1NC(=S)Nc1ccccc1S(N)(=O)=O,–,inactive: -9.67%
COc1cccc2cc(-c3nc4sc(C(=O)Nc5ccc(F)cc5F)c(C)c4c(=O)[nH]3)c(=O)oc12,"inconclusive: 7.08 µM [inhibitor, partial curve, poor fit]",–
COc1cccc(/C=N/Nc2nc(Nc3ccc([N+](=O)[O-])cc3)nc(N3CCCC3)n2)c1O,–,inactive: 13.7%
Cc1ccc(NC(c2ccccc2)c2nc3ccccc3[nH]c2=O)cc1 (configuration not stated),"inconclusive: 11.2 µM [inhibitor, partial curve]",–
Cc1cc(/C=C(\C#N)C(=O)O)c(C)n1CC1CCCO1 (configuration not stated),"inconclusive: 22.4 µM [inhibitor, single point]",–
COC(=O)/C(=C\c1cc(OC)c(OC)c(OC)c1)c1nc2ccccc2[nH]1,"inconclusive: 0.562 µM [inhibitor, full curve, poor fit]",–
CCOC(=O)c1cc(NC(=O)c2ccccc2)c(=O)oc1C(F)(F)F,"inconclusive: 3.16 µM [inhibitor, partial curve, poor fit]",–
Cc1cc(=O)[nH]c(N/N=C/c2cccc(Br)c2)n1,"inconclusive: 0.631 µM [inhibitor, full curve, poor fit]",–
CCOC(=O)c1ccc2cccc(C)n2c1=O,–,inactive: -9.5%
CCOc1ccc(OCC)c(NC(=O)CN2CCN(C(=O)c3ccco3)CC2)c1,–,inactive: -8.77%
CCOc1ccc(C2C(C#N)=C(N)N3C(=C2C#N)Sc2ccccc23)cc1 (configuration not stated),"inconclusive: 12.6 µM [inhibitor, partial curve, poor fit]",–
CCCN1CNC(=S)N(CCc2ccccc2)C1,"inconclusive: 35.5 µM [inhibitor, single point]",–
Cc1ccc(C)c(Cn2nnc(C(=O)NCc3ccccc3)c2N)c1,"inconclusive: 35.5 µM [inhibitor, single point]",–
Cc1cc(C)cc(NC(=O)COC(=O)c2n[nH]c3ccccc23)c1,"inconclusive: 6.31 µM [inhibitor, partial curve, poor fit]",–
CC1CCCC(C)N1CCOc1cc(N)ccc1C#N (configuration not stated),"inconclusive: 0.891 µM [inhibitor, full curve, poor fit]",–
COC(=O)C1=C(C)N(c2ccc(F)cc2)/C(=C/c2ccc(O)cc2)C1=O,"inconclusive: 5.01 µM [inhibitor, partial curve]",–

Compound,Potency,"activity, negative = active"
O=C(Cc1ccccc1)Nc1ccc2c(c1)C(=O)N(CC1CCCO1)C2=O (configuration not stated),"inconclusive: 3.16 µM [inhibitor, single point]",–
CCN(CC)S(=O)(=O)c1ccc2c(c1)c(=O)c(C(=O)N1CCN(c3ccccc3)CC1)cn2C,"inconclusive: 35.5 µM [inhibitor, single point]",–
CSc1ccc(CN2CCC(C(=O)NCc3ccc(C)cc3)CC2)cc1,"inconclusive: 6.31 µM [inhibitor, single point]",–
CN(C)c1ccc(/C=C2\Oc3ccc(C#Cc4cccc(N)c4)cc3C2=O)cc1,"inconclusive: 22.4 µM [inhibitor, partial curve, poor fit]",–
Cc1ccc(CSCC(=O)NCc2ccco2)cc1,"inconclusive: 11.2 µM [inhibitor, single point]",–
CCN(CC)c1ccc(NC(=O)c2cnn3c(C(F)F)cc(-c4ccccc4)nc23)cc1,–,inactive: 0.223%
CC(C)(C)c1ccc(OCCC(=O)Nc2cccc(S(=O)(=O)N3CCCCC3)c2)cc1,"inconclusive: 35.5 µM [inhibitor, partial curve, poor fit]",–
CCOc1ccccc1C(=O)OCC(=O)Nc1nnc(-c2ccccc2)o1,"inconclusive: 35.5 µM [inhibitor, single point]",–
O=C1S/C(=C\c2ccc(O)c([N+](=O)[O-])c2)C(=O)N1Cc1cccc([N+](=O)[O-])c1,–,inactive: -2.51%
CCCOc1ccc(-c2cccc(NS(=O)(=O)c3cc(OC)ccc3OC)c2)nn1,–,inactive: -7.84%
COc1ccc(C2=NN(C(=O)COC(=O)c3ccc(NC(=O)CC#N)cc3)C(c3ccco3)C2)cc1 (configuration not stated),"inconclusive: 25.1 µM [inhibitor, single point]",–
CCN(CC)c1cccc(OCC(=O)N(C)CCC#N)c1,"inconclusive: 35.5 µM [inhibitor, single point]",–
Nc1nc(SCc2ccc3c(c2)OCCO3)n[nH]1,–,inactive: -4.56%
CN1C(=O)/C(=C\c2ccc(-c3ccccc3)o2)SC1=S,"inconclusive: 35.5 µM [inhibitor, single point]",–
NNc1ccc2c(C(F)(F)F)cc(C(F)(F)F)nc2n1,"inconclusive: 17.8 µM [inhibitor, partial curve, poor fit]",–
COc1ccc(OC)c(NC(=O)c2cc(-c3cc(C)c(C)cc3O)n[nH]2)c1,"inconclusive: 35.5 µM [inhibitor, single point]",–
Cc1ccc(CNc2nc3ccc(Cl)cc3n3nnnc23)cc1,active: 7.08 µM,–
N#Cc1cc(-c2ccccc2)nc(N2CCNCC2)n1,–,inactive: 8.78%
Oc1[nH]c(=S)sc1/C=C1\C(c2ccccc2)=Nc2ccccc21,"inconclusive: 22.4 µM [inhibitor, single point]",–
Cc1cc(C)cc(-n2c(SCC(=O)Nc3cccc(F)c3)nc3c([nH]c4ccccc43)c2=O)c1,"inconclusive: 22.4 µM [inhibitor, single point]",–
COc1ccc(C)cc1NC(=O)CNC(=O)c1sc2ccccc2c1Cl,"inconclusive: 2 µM [inhibitor, partial curve, poor fit]",–

# Compounds above that contain a nitro group on carbon:
Compound,Potency,"activity, negative = active"
COc1cccc(/C=N/Nc2nc(Nc3ccc([N+](=O)[O-])cc3)nc(N3CCCC3)n2)c1O,–,inactive: 13.7%
O=C1S/C(=C\c2ccc(O)c([N+](=O)[O-])c2)C(=O)N1Cc1cccc([N+](=O)[O-])c1,–,inactive: -2.51%
